Reference: article PMC12314576, “The Actin‐Binding Prolyl‐Isomerase Par17 Sustains Its Substrate Selectivity by Interdomain Allostery” (Proteins, 2025)
Results are given in words; binding and its absence hold for the method and conditions named. Some results given as binding are weak or reduced against the parent protein; the word gives no strength.

Key:
Experiment in all cases: peptide or protein array; 12-mers of β-actin (2 amino acids per step) SPOT-synthesised on cellulose membranes, blocked with 5% BSA in PBS, incubated overnight with Atto594-labeled Par14 or Par17, washed with PBS, fluorescence imaged; runs of three or more spots classified as possible binding sites; both purified
β-actin 12-mer, spot B3 = molecular target: T1, β-actin 12-mer, spot B3
T1 sequence (peptide): EKIWHHTFYNEL

β-actin 12-mer, spot D4 = molecular target: T2, β-actin 12-mer, spot D4
T2 sequence (peptide): FNTPAMYVAIQA

β-actin 12-mer, spot D9 = molecular target: T3, β-actin 12-mer, spot D9
T3 sequence (peptide): IKIIAPPERKYS

β-actin 12-mer, spot E5 = molecular target: T4, β-actin 12-mer, spot E5
T4 sequence (peptide): YALPHAILRLDL

β-actin 12-mer, spot E7 = molecular target: T5, β-actin 12-mer, spot E7
T5 sequence (peptide): TIGNERFRCPEA

β-actin 12-mer, spot E9 = molecular target: T6, β-actin 12-mer, spot E9
T6 sequence (peptide): IIAPPERKYSVW

β-actin 12-mer, spot F4 = molecular target: T7, β-actin 12-mer, spot F4
T7 sequence (peptide): AMYVAIQAVLSL

β-actin 12-mer, spot F9 = molecular target: T8, β-actin 12-mer, spot F9
T8 sequence (peptide): APPERKYSVWIG

β-actin 12-mer, spot G2 = molecular target: T9, β-actin 12-mer, spot G2
T9 sequence (peptide): YVGDEAQSKRGI

β-actin 12-mer, spot I4 = molecular target: T10, β-actin 12-mer, spot I4
T10 sequence (peptide): QAVLSLYASGRT

β-actin 12-mer, spot J4 = molecular target: T11, β-actin 12-mer, spot J4
T11 sequence (peptide): VLSLYASGRTTG

β-actin 12-mer, spot J9 = molecular target: T12, β-actin 12-mer, spot J9
T12 sequence (peptide): VWIGGSILASLS

β-actin 12-mer, spot N1 = molecular target: T13, β-actin 12-mer, spot N1
T13 sequence (peptide): PRAVFPSIVGRP

β-actin 12-mer, spot N9 = molecular target: T14, β-actin 12-mer, spot N9
T14 sequence (peptide): ASLSTFQQMWIS

β-actin 12-mer, spot P5 = molecular target: T15, β-actin 12-mer, spot P5
T15 sequence (peptide): KILTERGYSFTT

β-actin 12-mer, spot Q5 = molecular target: T16, β-actin 12-mer, spot Q5
T16 sequence (peptide): LTERGYSFTTTA

β-actin 12-mer, spot R1 = molecular target: T17, β-actin 12-mer, spot R1
T17 sequence (peptide): VGRPRHQGVMVG

β-actin 12-mer, spot S1 = molecular target: T18, β-actin 12-mer, spot S1
T18 sequence (peptide): RPRHQGVMVGMG

Measured: binding

Atto594-labeled Par17 (from UniProt Q9Y237-2 3-156) (enzyme)
binds: all assays above
